Assay results published in article doi:10.1101/2025.02.28.640789.
These are yes or no findings as the source states them, for the method shown. Binding seen in cells or lysates may run through a third protein. Some binding calls cover weakened binding; strength is not graded here. For some assays here: Tags and fused reporters may be left off the sequences shown.

Amino acid sequences for entries named in this document (tags omitted).
UniProt P01106: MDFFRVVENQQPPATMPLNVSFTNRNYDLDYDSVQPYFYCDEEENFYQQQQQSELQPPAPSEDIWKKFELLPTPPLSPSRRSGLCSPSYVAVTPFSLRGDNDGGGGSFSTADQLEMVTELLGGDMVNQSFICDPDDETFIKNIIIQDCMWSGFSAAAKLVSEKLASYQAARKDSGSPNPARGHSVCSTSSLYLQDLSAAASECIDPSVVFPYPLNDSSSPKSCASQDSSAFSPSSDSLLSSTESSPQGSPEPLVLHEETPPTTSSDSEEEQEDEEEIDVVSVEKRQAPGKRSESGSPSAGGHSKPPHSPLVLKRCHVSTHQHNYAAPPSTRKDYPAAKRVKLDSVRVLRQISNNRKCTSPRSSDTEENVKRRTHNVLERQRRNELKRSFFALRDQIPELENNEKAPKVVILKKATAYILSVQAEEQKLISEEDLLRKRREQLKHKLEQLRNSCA
UniProt P04198: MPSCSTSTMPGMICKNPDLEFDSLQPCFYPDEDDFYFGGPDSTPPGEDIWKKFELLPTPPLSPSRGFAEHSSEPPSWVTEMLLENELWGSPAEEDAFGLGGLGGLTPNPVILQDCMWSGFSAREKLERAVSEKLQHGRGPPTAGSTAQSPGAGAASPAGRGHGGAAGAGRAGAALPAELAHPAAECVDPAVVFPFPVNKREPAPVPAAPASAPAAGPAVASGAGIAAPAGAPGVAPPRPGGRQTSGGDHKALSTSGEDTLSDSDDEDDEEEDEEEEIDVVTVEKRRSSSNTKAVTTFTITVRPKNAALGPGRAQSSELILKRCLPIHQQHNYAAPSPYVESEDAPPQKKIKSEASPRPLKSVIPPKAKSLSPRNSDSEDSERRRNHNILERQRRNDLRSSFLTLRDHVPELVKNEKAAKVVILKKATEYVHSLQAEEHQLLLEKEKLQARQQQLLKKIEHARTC

B1: CDCA2 endogenously tagged with an auxin degron module (AID) in HCT116 cells (protein, UniProt Q69YH5 1-1023)
chain: MDANSKDKPPETKESAMNNAGNASFILGTGKIVTPQKHAELPPNPCTPDTFKSPLNFSTVTVEQLGITPESFVRNSAGKSSSYLKKCRRRSAVGARGSPETNHLIRFIARQQNIKNARKSPLAQDSPSQGSPALYRNVNTLRERISAFQSAFHSIKENEKMTGCLEFSEAGKESEMTDLTRKEGLSACQQSGFPAVLSSKRRRISYQRDSDENLTDAEGKVIGLQIFNIDTDRACAVETSVDLSEISSKLGSTQSGFLVEESLPLSELTETSNALKVADCVVGKGSSDAVSPDTFTAEVSSDAVPDVRSPATPACRRDLPTPKTFVLRSVLKKPSVKMCLESLQEHCNNLYDDDGTHPSLISNLPNCCKEKEAEDEENFEAPAFLNMRKRKRVTFGEDLSPEVFDESLPANTPLRKGGTPVCKKDFSGLSSLLLEQSPVPEPLPQPDFDDKGENLENIEPLQVSFAVLSSPNKSSISETLSGTDTFSSSNNHEKISSPKVGRITRTSNRRNQLVSVVEESVCNLLNTEVQPCKEKKINRRKSQETKCTKRALPKKSQVLKSCRKKKGKGKKSVQKSLYGERDIASKKPLLSPIPELPEVPEMTPSIPSIRRLGSGYFSSNGKLEEVKTPKNPVKRKDLLRHDPDLHMHQGYDKYDVSEFCSYIKSSSSLGNATSDEDPNTNIMNINENKNIPKAKNKSESENEPKAGTDSPVSCASVTEERVASDSPKPALTLQQGQEFSAGGQNAENLCQFFKISPDLNIKCERKDDFLGAAEGKLQCNRLMPNSQKDCHCLGDVLIENTKESKSQSEDLGRKPMESSSVVSCRDRKDRRRSMCYSDGRSLHLEKNGNHTPSSSVGSSVEISLENSELFKDLSDAIEQTFQRRNSETKVRRSTRLQKDLENEGLVWISLPLPSTSQKAKRRTICTFDSSGFESMSPIKETVSSRQKPQMAPPVSDPENSQGPAAGSSDEPGKRRKSFCISTLANTKATSQFKGYRRRSSLNGKGESSLTALERIEHNGERKQ
B2: CDCA2 (protein, UniProt Q69YH5 1-1023)
chain: MDANSKDKPPETKESAMNNAGNASFILGTGKIVTPQKHAELPPNPCTPDTFKSPLNFSTVTVEQLGITPESFVRNSAGKSSSYLKKCRRRSAVGARGSPETNHLIRFIARQQNIKNARKSPLAQDSPSQGSPALYRNVNTLRERISAFQSAFHSIKENEKMTGCLEFSEAGKESEMTDLTRKEGLSACQQSGFPAVLSSKRRRISYQRDSDENLTDAEGKVIGLQIFNIDTDRACAVETSVDLSEISSKLGSTQSGFLVEESLPLSELTETSNALKVADCVVGKGSSDAVSPDTFTAEVSSDAVPDVRSPATPACRRDLPTPKTFVLRSVLKKPSVKMCLESLQEHCNNLYDDDGTHPSLISNLPNCCKEKEAEDEENFEAPAFLNMRKRKRVTFGEDLSPEVFDESLPANTPLRKGGTPVCKKDFSGLSSLLLEQSPVPEPLPQPDFDDKGENLENIEPLQVSFAVLSSPNKSSISETLSGTDTFSSSNNHEKISSPKVGRITRTSNRRNQLVSVVEESVCNLLNTEVQPCKEKKINRRKSQETKCTKRALPKKSQVLKSCRKKKGKGKKSVQKSLYGERDIASKKPLLSPIPELPEVPEMTPSIPSIRRLGSGYFSSNGKLEEVKTPKNPVKRKDLLRHDPDLHMHQGYDKYDVSEFCSYIKSSSSLGNATSDEDPNTNIMNINENKNIPKAKNKSESENEPKAGTDSPVSCASVTEERVASDSPKPALTLQQGQEFSAGGQNAENLCQFFKISPDLNIKCERKDDFLGAAEGKLQCNRLMPNSQKDCHCLGDVLIENTKESKSQSEDLGRKPMESSSVVSCRDRKDRRRSMCYSDGRSLHLEKNGNHTPSSSVGSSVEISLENSELFKDLSDAIEQTFQRRNSETKVRRSTRLQKDLENEGLVWISLPLPSTSQKAKRRTICTFDSSGFESMSPIKETVSSRQKPQMAPPVSDPENSQGPAAGSSDEPGKRRKSFCISTLANTKATSQFKGYRRRSSLNGKGESSLTALERIEHNGERKQ

Columns and labels:
[1] = target: MYC (human (endogenous in HCT116)) (UniProt P01106); assay: proximity ligation
[2] = target: MYCN (UniProt P04198); assay: proximity ligation

Binder	binding [1]	binding [2]
B1	binds	
B2		binds
